# Source: the supplement of paper PMC9549374
# The list shows a part of the results. Rule as the data show it: active = 2-fold of DMSO or more and inactive = the rest. Single values of this set are uncertain. Some low values are a fixed figure set by the source, not a measured ratio.
# Test system: CM7/1-hgem mouse ES cell-derived cardiomyocytes
# Experiment: maximal number of mAG-hGem(1/110)-positive cardiomyocytes over 96 h, fold-change vs DMSO; higher = more cardiomyocyte cell cycle activity
# Conditions: 1 µM; 96 (max over 12 h time points) h
row,SMILES,maximal number
1,CO/N=C(\C(=O)N[C@@H]1C(=O)N2C(C(=O)OCOC(=O)C(C)(C)C)=C(/C=C\c3scnc3C)CS[C@H]12)c1csc(N)n1,inactive: 1
2,O=C(CCCN1CCN(c2ccccn2)CC1)c1ccc(F)cc1,inactive: 1
3,O=C(O)c1cc2cc(F)ccc2[nH]1,inactive: 0
4,O=c1c(O)cccc2cc(O)c(O)c(O)c12,inactive: 0
5,"COC(=O)C[C@H]1C(C)(C)[C@@H](O)[C@@H]2CC3=C4CC(O)O[C@@H](c5ccoc5)[C@]4(C)CCC3[C@@]1(C)C2=O (stereo partly drawn) [3,16-DIDEOXYMEXICANOLIDE-3beta-DIOL]",inactive: 1
6,CC1(C)CC2C1CCC1(C)OC2(C)CCC1O (stereo not drawn),inactive: 1
7,COc1c(C)c2c(c(O)c1C/C=C(\C)CCC(=O)OCCN1CCOCC1)C(=O)OC2,inactive: 1
8,COC1=C(OC)C(=O)C(CCCCCCCCCCO)=C(C)C1=O,active: 3
9,CC(C)=CCCC1(C)C=Cc2c(O)c3c(c(CC=C(C)C)c2O1)OC12C(=CCCC1C(C)(C)O[C@@]2(C/C=C(\C)C(=O)O)C(=O)O)C3=O (stereo partly drawn),inactive: 1
10,O=C1CC[C@@H](C(=O)N2CSC[C@H]2C(=O)O)N1,active: 2
11,O=C(O)c1cc(=O)[nH]c(=O)[nH]1,inactive: 1
12,CCOC(=O)c1c(C)cc(O)c(C=O)c1O,inactive: 1
13,N#CC(c1ccc(Cl)cc1)c1c(Cl)cc(-n2ncc(=O)[nH]c2=O)cc1Cl (stereo not drawn),inactive: 1
14,O=S(=O)(O)CCSSCCS(=O)(=O)O,inactive: 0
15,OCc1ccccc1O[C@@H]1O[C@H](CO)[C@@H](O)[C@H](O)[C@H]1O,inactive: 1
16,COC(=O)C[C@H]1C(C)(C)[C@@H](OC(C)=O)[C@@H]2CC3=C4CC(=O)O[C@@H](c5ccoc5)[C@]4(C)CC[C@@H]3[C@@]1(C)C2=O,inactive: 0
17,CC(=O)OCC(=O)NCCCOc1cccc(CN2CCCCC2)c1,inactive: 1
18,COc1cc(C/C=C/c2ccccc2)c(OC)cc1O,inactive: 1
19,COc1c(OC)c2occc2c2oc(=O)ccc12,inactive: 1

row,SMILES,maximal number
1,O=C(O[C@@H]1Cc2c(O)cc(O)cc2O[C@@H]1c1cc(O)c(O)c(O)c1)c1cc(O)c(O)c(O)c1,inactive: 0
2,C=C1c2cccc(O)c2C(=O)C2=C(O)[C@]3(O)C(=O)C(C(N)=O)=C(O)[C@@H](N(C)C)[C@@H]3[C@@H](O)[C@H]12,inactive: 1
3,CC(N)C(=O)OC(C)(C)Cc1ccc(Cl)cc1 (stereo not drawn),inactive: 0.5
4,Oc1cc(O)c2c(c1)O[C@H](c1cc(O)c(O)c(O)c1)[C@H](O)C2,inactive: 1
5,COc1ccc(CC(=O)c2ccc(O)cc2O)cc1,inactive: 1
6,NCCC(=O)N[C@@H](Cc1c[nH]cn1)C(=O)O,inactive: 1
7,C=C1c2c(Cl)ccc(O)c2C(=O)C2=C(O)[C@]3(O)C(=O)C(C(N)=O)=C(O)[C@@H](N(C)C)[C@@H]3[C@@H](O)[C@H]12.O=C(O)c1cc(S(=O)(=O)O)ccc1O,inactive: 1
8,C[C@@H]1CC(=O)NN=C1c1ccc(NN=C(C#N)C#N)cc1,inactive: 1
9,CC(C)=CCc1c2c(c3occ(-c4ccc(O)cc4)c(=O)c3c1O)C=CC(C)(C)O2,active: 4
10,CC(=O)Nc1ccc(OC(C)=O)cc1,inactive: 1
11,CCOc1cccc(C(=O)c2ccc(O)c(O)c2O)c1,inactive: 1
12,Cc1cc(O)c2c(c1)C(=O)c1cc(O)cc(O)c1C2=O,inactive: 0
13,CN1C(C(=O)Nc2ccccn2)=C(O)c2sc(Cl)cc2S1(=O)=O,inactive: 1
14,O=C(Nc1ccccc1)Nc1ccccc1,inactive: 1
15,CC(C)=CCc1c(O)cc2oc(C)cc(=O)c2c1O,inactive: 1
16,Nc1ncn([C@@H]2O[C@H](CO)[C@@H](O)[C@H]2O)c(=O)n1,inactive: 1
17,CC1(C)OC(=O)C(OCC2CC2)=C1c1ccc(S(C)(=O)=O)cc1,inactive: 1
18,NCCCCC(=O)O,inactive: 1
19,COc1ccc(-c2coc3c(OC)c(OC)cc(O)c3c2=O)cc1,inactive: 0.5

# An excerpt of these results, with bars between the fields.
row | SMILES | maximal number
10 | O=C1CC[C@@H](C(=O)N2CSC[C@H]2C(=O)O)N1 | active: 2
11 | O=C(O)c1cc(=O)[nH]c(=O)[nH]1 | inactive: 1
